Experimental data reported in US20060160721A1, “Method of plasma lipidation to prevent, inhibit and/or reverse atherosclerosis” (BAYLOR COLLEGE OF MEDICINE, priority 2004, published 2006).
Like-named read-outs stand apart in the source and are kept apart here.

What was measured:
[1] = Association of [3H]POPC with lipoproteins in whole plasma and TLP (centrifugation, radioactivity); set-up: species or system human
[2] = for half time for the disappearance of [3H]cholate: dialysis at 4 C

| SMILES | [3H]POPC sedimented by centrifugation ([1]; incubated with plasma and cholate before dialysis) | POPC sedimented by centrifugation ([1]; incubated with plasma only) | half time of [3H]cholate disappearance during dialysis ([2]; TLP (TLP-protein 2.0 mg/mL)) | half time of [3H]cholate disappearance during dialysis ([2]; TLP+1.6 mg/mL POPC) | half time of [3H]cholate disappearance during dialysis ([2]; cholate) | half time for the disappearance of [3H]cholate ([2]; cholate only) | half time for the disappearance of [3H]cholate ([2]; cholate+TLP) |
| --- | --- | --- | --- | --- | --- | --- | --- |
| CCCCCCCC/C=C\CCCCCCCC(=O)O[C@H](COC(=O)CCCCCCCCCCCCCCC)COP(=O)([O-])OCC[N+](C)(C)C [POPC, 1-palmitoyl-2-oleoyl (PO) PC] | little or no | ~90% |  |  |  |  |  |
| C[C@H](CCC(=O)[O-])[C@H]1CC[C@H]2[C@@H]3[C@H](O)C[C@@H]4C[C@H](O)CC[C@]4(C)[C@H]3C[C@H](O)[C@]12C.[Na+] [cholate, sodium cholate] |  |  | 3.0 h | 3.5 h | 2.7 h | 3.5 h | 4.5 h |
